Laboratory results: PubChem BioAssay AID652259 (Drosophila RNAi Screening Center, 2013)
The deposit covers about 22,000 reagents; shown is an unselected part of those that have a named target and a result. Of all reagents, 233 (1.1%) got an active call. 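Light values are raw, unnormalised plate reads; the ratio scores behind the reporter calls were not deposited.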 Names joined by + are all predicted targets of the reagent. Not stated in the record: the amount of reagent, the time to read-out, the dose of the treatment.

- Assay: 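Identify new Wingless signalling regulators in fly cells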 (primary screen)
- System: Drosophila clone 8 imaginal disc epithelial cells
- Reagent: long dsRNA against Drosophila genes
- Conditions: pathway stimulated by co-transfected Wingless expression plasmid
- Measured: 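Firefly luciferase from a tcf-site Wingless reporter, measured alongside co-transfected Renilla luciferase that tracks transfection; pathway stimulated by a Wingless plasmid; the firefly-to-Renilla ratio is not deposited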
- Reading the numbers: firefly reporter light: higher = more Wg reporter light, before normalisation; Renilla control light: higher = more transfected or surviving cells
- Hit rule: 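Strong candidates differ from their plate mean by at least two out of four per-plate statistical tests; weak candidates meet just one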
- Calls: active = candidate regulator (raises or lowers reporter); inactive = not a candidate

After knock-down of RpL13 (Ribosomal protein L13) [DRSC03416] the results were firefly reporter light, replicate 1 = 3323; Renilla control light, replicate 1 = 1008; inactive.
NiPp1 (Nuclear inhibitor of Protein phosphatase 1) [DRSC07307] showed firefly reporter light, replicate 1 = 13904; Renilla control light, replicate 1 = 5400; inactive.
Knock-down of fray (frayed) [DRSC16950] resulted in: firefly reporter light, replicate 1 = 12765; Renilla control light, replicate 1 = 2672; inactive.
Silencing of CG30369 [DRSC21996] gave: firefly reporter light, replicate 1 = 8.20e5; firefly reporter light, replicate 2 = 8.75e5; Renilla control light, replicate 1 = 3.42e5; Renilla control light, replicate 2 = 3.95e5; inactive.
With knock-down of CG13088 [DRSC02192], the record shows firefly reporter light, replicate 1 = 2901; firefly reporter light, replicate 2 = 8355; Renilla control light, replicate 1 = 908; Renilla control light, replicate 2 = 2968; inactive.
For CG43774 + CG43773 [DRSC00287], the values are firefly reporter light, replicate 1 = 2581; firefly reporter light, replicate 2 = 4116; Renilla control light, replicate 1 = 1126; Renilla control light, replicate 2 = 2007; inactive.
CG43774 + CG43773 [DRSC00288] gave firefly reporter light, replicate 1 = 3117; firefly reporter light, replicate 2 = 8413; Renilla control light, replicate 1 = 1367; Renilla control light, replicate 2 = 2896; inactive.
After knock-down of Cep89 (Centrosomal protein 89kDa) [DRSC07110] the results were firefly reporter light, replicate 1 = 5227; Renilla control light, replicate 1 = 2295; inactive.
After knock-down of ATPsyndelta (ATP synthase, delta subunit) [DRSC18248], the record shows firefly reporter light, replicate 1 = 13488; Renilla control light, replicate 1 = 4208; inactive.
CG6761 [DRSC10705] gave firefly reporter light, replicate 1 = 2905; Renilla control light, replicate 1 = 1024; inactive.
After knock-down of CG10553 [DRSC14254] the results were firefly reporter light, replicate 1 = 19984; Renilla control light, replicate 1 = 26547; inactive.
Against CG7304 [DRSC10804], the entry reads firefly reporter light, replicate 1 = 7821; Renilla control light, replicate 1 = 2561; inactive.
After knock-down of Psi (P-element somatic inhibitor) [DRSC07519], the screen gave firefly reporter light, replicate 1 = 9040; Renilla control light, replicate 1 = 3065; inactive.
CG2519 [DRSC12312] scored firefly reporter light, replicate 1 = 3830; Renilla control light, replicate 1 = 1232; inactive.
Silencing of apn (apnoia) [DRSC15124] came out at: firefly reporter light, replicate 1 = 14685; Renilla control light, replicate 1 = 3144; inactive.
Hr3 (Hormone receptor 3) [DRSC06118] showed firefly reporter light, replicate 1 = 3876; firefly reporter light, replicate 2 = 5786; Renilla control light, replicate 1 = 317; Renilla control light, replicate 2 = 776; inactive.
With knock-down of Hr3 (Hormone receptor 3) [DRSC07441] the results were firefly reporter light, replicate 1 = 10528; Renilla control light, replicate 1 = 2984; inactive.
Knock-down of CG7685 [DRSC16285] came out at: firefly reporter light, replicate 1 = 17692; Renilla control light, replicate 1 = 3036; inactive.
With knock-down of CG16781 [DRSC18117], the screen gave firefly reporter light, replicate 1 = 13393; Renilla control light, replicate 1 = 12536; inactive.
Depletion of b (black) [DRSC03487] resulted in: firefly reporter light, replicate 1 = 3629; firefly reporter light, replicate 2 = 6848; Renilla control light, replicate 1 = 1467; Renilla control light, replicate 2 = 3883; inactive.
For Fsn (F-box synaptic protein) [DRSC06875], the values are firefly reporter light, replicate 1 = 15159; Renilla control light, replicate 1 = 4448; inactive.
mIF2 (mitochondrial translation initiation factor 2) [DRSC14510] showed firefly reporter light, replicate 1 = 7367; Renilla control light, replicate 1 = 3320; inactive.
Against CG33235 [DRSC19641], the entry reads firefly reporter light, replicate 1 = 20418; Renilla control light, replicate 1 = 10624; inactive.
Against CG32579 [DRSC19872], the entry reads firefly reporter light, replicate 1 = 21056; Renilla control light, replicate 1 = 9712; inactive.
With knock-down of Usp32 (Ubiquitin specific protease 32) [DRSC10979], the record shows firefly reporter light, replicate 1 = 13725; Renilla control light, replicate 1 = 4646; inactive.
CG9331 [DRSC03206] scored firefly reporter light, replicate 1 = 15280; Renilla control light, replicate 1 = 5052; inactive.
Depletion of CG42502 + CG10570 [DRSC02071] gave: firefly reporter light, replicate 1 = 13211; Renilla control light, replicate 1 = 3155; inactive.
Silencing of CG31462 (retired record) [DRSC14359] came out at: firefly reporter light, replicate 1 = 10649; Renilla control light, replicate 1 = 3453; inactive.
GLaz (Glial Lazarillo) [DRSC07431] scored firefly reporter light, replicate 1 = 3309; Renilla control light, replicate 1 = 1744; inactive.
Depletion of Pmm2 (Phosphomannomutase type 2) [DRSC09780] resulted in: firefly reporter light, replicate 1 = 7641; Renilla control light, replicate 1 = 2337; inactive.
With knock-down of GCS2alpha (Glucosidase 2 alpha subunit) [DRSC21036], the record shows firefly reporter light, replicate 1 = 13346; Renilla control light, replicate 1 = 1077; inactive.
Against lin-28 [DRSC10261], the entry reads firefly reporter light, replicate 1 = 2443; firefly reporter light, replicate 2 = 8611; Renilla control light, replicate 1 = 1792; Renilla control light, replicate 2 = 4710; inactive.

Looked up above.
ATPsyndelta (ATP synthase, delta subunit) [DRSC18248], Renilla control light, replicate 1 → 4208
Result for b (black) [DRSC03487] under “Renilla control light, replicate 1”: 1467
